According to US20180022822A1, “NOVEL ANTI-FIBROBLAST ACTIVATION PROTEIN (FAP) BINDING AGENTS AND USES THEREOF” (Mabimmune Diagnostics AG, priority 2016, published 2018):
Results are given in words; binding and its absence hold for the method and conditions named. Some entries that bind do so weakly or less than the wild type.

The chains behind the UniProt entries cited, without tags or fusion partners. Where a name states a change or a piece, a line headed by the entry shows the natural chain unless it says otherwise. A line that says so, or that is headed by a name, gives the form on record, which may keep a tag or linker.
UniProt Q12884: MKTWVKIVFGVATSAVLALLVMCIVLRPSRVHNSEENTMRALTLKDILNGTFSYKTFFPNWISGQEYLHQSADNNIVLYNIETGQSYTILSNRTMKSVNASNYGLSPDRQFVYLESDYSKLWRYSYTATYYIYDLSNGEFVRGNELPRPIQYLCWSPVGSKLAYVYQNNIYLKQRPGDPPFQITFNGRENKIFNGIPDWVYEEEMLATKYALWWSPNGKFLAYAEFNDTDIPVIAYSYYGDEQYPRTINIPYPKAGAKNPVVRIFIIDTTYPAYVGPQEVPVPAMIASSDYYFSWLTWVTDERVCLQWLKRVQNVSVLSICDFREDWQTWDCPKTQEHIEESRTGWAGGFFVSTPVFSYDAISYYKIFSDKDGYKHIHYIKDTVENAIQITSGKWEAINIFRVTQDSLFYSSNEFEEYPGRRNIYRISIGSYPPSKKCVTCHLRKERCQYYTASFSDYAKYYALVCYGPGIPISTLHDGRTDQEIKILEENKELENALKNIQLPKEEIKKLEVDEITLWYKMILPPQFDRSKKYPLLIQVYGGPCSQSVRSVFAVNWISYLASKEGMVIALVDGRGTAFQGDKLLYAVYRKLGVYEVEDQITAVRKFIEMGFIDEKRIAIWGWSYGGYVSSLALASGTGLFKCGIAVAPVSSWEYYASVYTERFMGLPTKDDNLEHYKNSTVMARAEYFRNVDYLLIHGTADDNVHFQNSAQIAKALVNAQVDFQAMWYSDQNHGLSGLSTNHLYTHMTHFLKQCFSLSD
recombinant human Fibroblast Activation Protein (FAP) with N-terminus 6x histidine tag (Q12884, form named): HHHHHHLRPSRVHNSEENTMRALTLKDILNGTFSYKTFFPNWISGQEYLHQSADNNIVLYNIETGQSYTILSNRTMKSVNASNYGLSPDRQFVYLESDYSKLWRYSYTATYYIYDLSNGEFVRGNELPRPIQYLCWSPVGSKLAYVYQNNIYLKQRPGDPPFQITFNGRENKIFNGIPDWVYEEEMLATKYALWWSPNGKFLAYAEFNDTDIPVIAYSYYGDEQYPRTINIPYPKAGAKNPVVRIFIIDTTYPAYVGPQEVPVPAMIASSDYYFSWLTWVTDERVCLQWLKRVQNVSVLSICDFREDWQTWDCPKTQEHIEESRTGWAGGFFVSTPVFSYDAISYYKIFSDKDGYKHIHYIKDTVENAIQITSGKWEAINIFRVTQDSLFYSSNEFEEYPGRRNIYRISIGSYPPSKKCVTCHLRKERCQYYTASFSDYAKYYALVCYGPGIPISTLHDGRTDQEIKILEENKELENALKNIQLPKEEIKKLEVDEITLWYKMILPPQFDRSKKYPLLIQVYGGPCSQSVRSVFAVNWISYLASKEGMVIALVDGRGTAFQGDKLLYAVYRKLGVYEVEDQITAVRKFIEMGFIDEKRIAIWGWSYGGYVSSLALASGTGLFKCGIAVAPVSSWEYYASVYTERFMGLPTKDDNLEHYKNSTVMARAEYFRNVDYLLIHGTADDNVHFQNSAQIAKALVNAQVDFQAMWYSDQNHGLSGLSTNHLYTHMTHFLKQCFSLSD

Legend:
[1] = target: recombinant human Fibroblast Activation Protein (FAP) with N-terminus 6x histidine tag (human) (UniProt Q12884); assay: capture and direct ELISA
[2] = target: T1, FAP peptide 131 (521-…-535) (human); assay: pepscan, spotted 15-mer peptides
T1 sequence (peptide): KMILPPQFDRSKKYP

[3] = target: T2, FAP peptide 132 (525-…-539) (human); assay: pepscan, spotted 15-mer peptides
T2 sequence (peptide): PPQFDRSKKYPLLIQ

[4] = target: recombinant human Fibroblast Activation Protein (FAP) with N-terminus 6x histidine tag (human) (UniProt Q12884); assay: direct ELISA, OD 450 nm (FIG. 2B)
[5] = target: recombinant human Fibroblast Activation Protein (FAP) with N-terminus 6x histidine tag (human) (UniProt Q12884); assay: capture ELISA, OD 450 nm (FIG. 2A)
[6] = target: T1, FAP peptide 131 (521-…-535) (human); assay: pepscan, antibody at 1 µg/ml (FIG. 4A)
[7] = target: T2, FAP peptide 132 (525-…-539) (human); assay: pepscan, antibody at 1 µg/ml (FIG. 4A)
[8] = target: T3, FAP peptide 28 (109-…-123) (human); assay: pepscan, antibody at 1 µg/ml (FIG. 4A)
T3 sequence (peptide): RQFVYLESDYSKLWR

[9] = target: T4, FAP peptide 29 (113-…-127) (human); assay: pepscan, antibody at 1 µg/ml (FIG. 4A)
T4 sequence (peptide): YLESDYSKLWRYSYT

[10] = target: recombinant human Fibroblast Activation Protein (FAP) with N-terminus 6x histidine tag (human) (UniProt Q12884); assay: ELISA at 20, 4 and 0.8 nM antibody (FIG. 7A)
[11] = target: T5, FAP peptide fragment 521-…-539 (human); assay: truncation peptide array; spot 21 is the full length peptide
T5 sequence (peptide): KMILPPQFDRSKKYPLLIQ

[12] = target: recombinant human Fibroblast Activation Protein (FAP) with N-terminus 6x histidine tag (human) (UniProt Q12884); assay: sandwich ELISA: F19 capture, HRP-labelled 82C2 detection (FIG. 17)
[13] = target: transmembrane human FAP on FAP expressing HEK293 cells (human) (UniProt Q12884); assay: flow cytometry on FAP-HEK293 cells, ΔMFI against 43A11, pH 6.2-7.4
[14] = target: transmembrane human FAP on FAP expressing HEK293 cells (human) (UniProt Q12884); assay: flow cytometry, Cy5 labelled antibody on FAP+ HEK293 cells in pH adjusted PBS (FIG. 24A)
[15] = target: recombinant human Fibroblast Activation Protein (FAP) with N-terminus 6x histidine tag (human) (UniProt Q12884); assay: ELISA: enzyme captured by anti-tag antibody, HRP-labelled NI-206.82C2 titrated 0.004-400 nM (FIG. 7E)
[16] = target: recombinant human Fibroblast Activation Protein (FAP) with N-terminus 6x histidine tag (human) (UniProt Q12884); assay: ELISA: rhFAP captured through its His-tag by coated anti-His antibody (sFAP), antibody at 20, 4 and 0.8 nM
[17] = target: recombinant human Fibroblast Activation Protein (FAP) with N-terminus 6x histidine tag (human) (UniProt Q12884); assay: sandwich ELISA: F19 coated as capture antibody, rhFAP titrated, HRP-labelled NI-206.82C2 as detection antibody [C]
[18] = target: recombinant human Fibroblast Activation Protein (FAP) with N-terminus 6x histidine tag (human) (UniProt Q12884); assay: ELISA: rhFAP held on the plate by an anti-tag antibody, HRP-labelled NI-206.82C2 titrated, TMB, OD 450 nm; markers as in the legend box beside panel F [continued) E]
[19] = target: transmembrane human FAP on FAP expressing HEK293 cells (human) (UniProt Q12884); assay: flow cytometry: Cy5-labelled antibody on FAP-expressing HEK293 cells in pH-adjusted PBS; delta MFI = MFI of the antibody minus MFI of Cy5-43A11; the antibody concentration of the plotted curve is not given on the sheet

- binding [1]: binds
- binding [2]: binds
- binding [3]: binds
- binding [4]: binds
- binding [5]: binds
- binding [6]: binds
- binding [7]: binds
- binding [8]: binds
- binding [9]: binds
- binding [10]: binds
- binding [11]: binds
- binding [12]: binds
- binding [13]: binds
- binding [14]: binds
- binding [15]: binds
- binding [16]: binds
- binding [17]: binds
- binding [18]: binds
- binding [19]: binds
B1: NI-206.82C2 (antibody, V domains shown)
VH: QVQLQQSGPGLVKPSQTLSLTCAISGDSVSSNSVTWNWIRQSPSRGLEWLGRTYYRSKWYNDYAVSVKGRITINPDTSKNQFYLQLKSVTPEDAAVYYCARDSSILYGDYWGQGTLVTVSS
VL: QAVLTQPSSLSASPGASASLTCTLPSGINVGTYRIFWFQQKPGSPPQYLLSYKSDSDNHQGSGVPSRFSGSKDASANAGILLISGLQSEDEADYYCMIWHSSAWVFGGGTKLTVL
